US20170088616A1
These are yes or no findings as the source states them, for the method shown. Some results given as binding are weak or reduced against the parent protein; the word gives no strength.

Sequences of proteins named here, by UniProt entry; tags and fusion partners are left off. A change or cut given only in a name is not applied to a line headed by its entry.
UniProt Q8TDQ0: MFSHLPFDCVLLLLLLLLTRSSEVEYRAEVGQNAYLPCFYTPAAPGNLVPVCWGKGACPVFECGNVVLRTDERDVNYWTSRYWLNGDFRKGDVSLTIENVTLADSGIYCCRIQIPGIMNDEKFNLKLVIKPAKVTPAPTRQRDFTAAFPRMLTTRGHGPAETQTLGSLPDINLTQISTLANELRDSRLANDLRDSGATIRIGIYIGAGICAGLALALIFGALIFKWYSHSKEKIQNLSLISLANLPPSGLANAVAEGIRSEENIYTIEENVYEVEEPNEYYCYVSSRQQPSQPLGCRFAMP

Experiments:
human TIM-3 (human) = human TIM-3 (human) (UniProt Q8TDQ0); test: flow cytometry, transfected HEK293F cells
[1] = target: Mucin chimeraTIM-3 (human TIM-3 with the mucin domain substituted for mouse TIM-3) (human/mouse chimera); test: flow cytometry, transfected HEK293F cells

binding (human TIM-3 (human)): binds | binding [1]: binds
B1: antibody 4177 (antibody, human IgG1, V domains shown)
VH: QVQLQESGPGLVKPSETLSLTCTVSGGSISSYYWSWIRQPPGKGLEWIGYIFHSGSTNYNPSLKSRVTISVDTSKNQFSLKLSSVTAADTAVYYCARDGEYFDMLTGFDYWGQGTLVTVSS
VL: DIQMTQSPSSLSASVGDRVTITCRASQGISSWLAWYQQKPEKAPKSLIYAASSLQSGVPSRFSGSGSGTDFTLTISSLQPEDFATYYCQQYNSYPRTFGQGTKVEIK
